Test results as given in publication PMC3816256, “Sgol2 provides a regulatory platform that coordinates essential cell cycle processes during meiosis I in oocytes” (eLife, 2013).

Legend:
Assay in all cases: far-Western, overlay or dot blot; far-western blot of Sgol2 fragments 120-180 with Mad2; which partner was on the membrane is not stated
[1] = target: T1, Sgol2 fragment spanning amino-acid residues 120-180, H150A (mouse) (UniProt Q7TSY8)
T1 sequence: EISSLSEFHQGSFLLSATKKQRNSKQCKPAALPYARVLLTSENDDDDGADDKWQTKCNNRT

[2] = target: T2, Sgol2 fragment spanning amino-acid residues 120-180, H150E (mouse) (UniProt Q7TSY8)
T2 sequence: T1 sequence with A31E

[3] = target: T3, Sgol2 fragment spanning amino-acid residues 120-180, wild type MIM (mouse) (UniProt Q7TSY8)
T3 sequence: T1 sequence with A31H

binding [1]: binds | binding [2]: binds | binding [3]: binds
Substance: Mad2

Changes are numbered by the printed parent chain. These are yes or no findings as the source states them, for the method shown. Binding can be weak; no strength is given.
